Publication PMC6269430
These are yes or no findings as the source states them, for the method shown. Binding seen in cells or lysates may run through a third protein.

Protein sequences, listed by entry. Tags and fused reporters are not part of them.
UniProt Q02248: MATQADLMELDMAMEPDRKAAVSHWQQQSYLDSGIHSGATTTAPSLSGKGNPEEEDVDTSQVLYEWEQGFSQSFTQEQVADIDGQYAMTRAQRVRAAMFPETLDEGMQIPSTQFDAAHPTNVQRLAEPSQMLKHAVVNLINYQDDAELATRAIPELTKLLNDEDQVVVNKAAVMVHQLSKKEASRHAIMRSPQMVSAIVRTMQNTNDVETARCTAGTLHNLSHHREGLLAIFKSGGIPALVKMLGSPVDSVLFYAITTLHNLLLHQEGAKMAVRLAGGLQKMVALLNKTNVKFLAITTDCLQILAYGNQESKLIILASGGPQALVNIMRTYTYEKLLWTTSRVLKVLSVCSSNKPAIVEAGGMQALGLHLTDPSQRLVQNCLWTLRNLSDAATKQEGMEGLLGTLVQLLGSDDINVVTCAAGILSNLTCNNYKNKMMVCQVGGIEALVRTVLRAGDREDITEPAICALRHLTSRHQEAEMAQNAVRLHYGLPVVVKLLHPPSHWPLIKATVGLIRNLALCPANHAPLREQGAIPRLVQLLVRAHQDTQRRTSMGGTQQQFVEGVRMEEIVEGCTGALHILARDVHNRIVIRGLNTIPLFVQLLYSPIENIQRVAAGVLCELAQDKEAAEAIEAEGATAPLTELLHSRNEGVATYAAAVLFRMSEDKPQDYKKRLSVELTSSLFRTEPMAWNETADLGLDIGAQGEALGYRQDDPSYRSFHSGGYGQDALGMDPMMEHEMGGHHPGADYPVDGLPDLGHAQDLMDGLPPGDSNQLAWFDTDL
UniProt Q99LG0: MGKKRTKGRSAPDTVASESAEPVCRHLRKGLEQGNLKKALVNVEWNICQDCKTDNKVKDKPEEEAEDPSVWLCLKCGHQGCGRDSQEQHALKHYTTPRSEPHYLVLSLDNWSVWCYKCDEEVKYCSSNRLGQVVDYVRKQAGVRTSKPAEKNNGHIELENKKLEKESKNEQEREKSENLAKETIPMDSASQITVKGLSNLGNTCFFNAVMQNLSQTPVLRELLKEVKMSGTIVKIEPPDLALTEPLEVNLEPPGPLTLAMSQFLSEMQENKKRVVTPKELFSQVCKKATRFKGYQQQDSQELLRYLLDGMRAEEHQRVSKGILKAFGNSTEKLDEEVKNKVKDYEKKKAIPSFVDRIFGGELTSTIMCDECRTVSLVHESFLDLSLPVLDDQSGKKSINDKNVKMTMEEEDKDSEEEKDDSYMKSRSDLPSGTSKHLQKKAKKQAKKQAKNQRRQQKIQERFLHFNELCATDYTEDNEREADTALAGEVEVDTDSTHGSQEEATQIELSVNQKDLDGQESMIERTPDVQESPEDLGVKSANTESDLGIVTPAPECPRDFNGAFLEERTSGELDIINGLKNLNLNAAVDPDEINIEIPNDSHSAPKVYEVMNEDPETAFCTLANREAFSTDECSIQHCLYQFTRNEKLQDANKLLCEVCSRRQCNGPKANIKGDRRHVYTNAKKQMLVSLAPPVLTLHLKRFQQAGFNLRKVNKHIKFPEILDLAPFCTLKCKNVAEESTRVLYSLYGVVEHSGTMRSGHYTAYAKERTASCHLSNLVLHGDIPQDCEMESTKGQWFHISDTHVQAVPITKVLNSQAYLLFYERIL

Biological target: β-Catenin (mouse (endogenous in MEF)) (UniProt Q02248)
Experiment: co-IP; Pierce Co-IP kit; 10 ug antibody to USP16 or to β-catenin (control: rabbit IgG) coupled to AminoLink Plus resin; 1 mg precleared MEF P2 lysate, 4 °C overnight; immunoblot

In the case of “Usp16 (from UniProt Q99LG0 1-825) (enzyme)”, the binding is reported as “no binding”.
